Results reported in PubChem BioAssay AID624291 (National Center for Advancing Translational Sciences (NCATS), 2012).
The whole screen tested about 350,000 compounds, of which about 220 (0.063%) were called active. Inconclusive means that the source gave no clear call. Such entries were picked first, then a sample of the others. Calls come from the whole dose curve; as a rule, active = well fitted activation curve with a large enough effect; inconclusive = small, poorly fitted or top-dose-only effect; inactive = no such curve, though single readings can be large or run the other way. Potencies beside an inconclusive call are fits to weak or partial responses and may not hold up.

Experiment: qHTS for Activators of Integrin-Mediated Alleviation for Muscular Dystrophy; note: nearly all actives have a fitted effect of over 60% in size;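 for activation: 100% = response of the positive control SU9516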
Details: alpha7betagal myoblasts, beta-gal FDG fluorescence, 48 h; activation: at 38.3 µM (top of the series)
Outline: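 alpha7betagal+/- myoblasts (passage 13, 250/well) treated 48 h at 37C with compounds at 1:260 dilution of DMSO stock. Lysed, then beta-galactosidase activity read as FDG fluorescence (ex 480/em 540) after 30 min, with pre-read for autofluorescence.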
Potency is the fitted concentration of half-maximal effect.

SMILES	Potency	activation
O=C(C1CCCCC1)N1CCc2[nH]c3ccc(F)cc3c2C1	inconclusive: 28.2 µM [activator, single point]	
CS(=O)(=O)c1ccc(Cl)c(NC(=O)CCl)c1	inconclusive: 22.4 µM [activator, single point]	
Cn1c(CNC(=O)c2ccco2)nnc1SCCOc1ccccc1	inconclusive: 15.8 µM [activator, single point]	
COCCn1c(=O)[nH]c2cc(C(=O)N3CCN(c4ccccc4)CC3)ccc2c1=O	inconclusive: 2.51 µM [activator, partial curve, poor fit]	
CCC(=O)Nc1cc2nn(-c3ccc(OC)cc3)nc2cc1C	inconclusive: 11.2 µM [activator, partial curve, poor fit]	
C=CCN(C(=O)Cn1nc(C)n2c(cc3cc(C)ccc32)c1=O)c1ccccc1	inconclusive: 5.01 µM [activator, single point]	
Cc1cc(NC(=O)CCC(=O)N(c2ccccc2)C(C(=O)NC(C)(C)C)c2ccccc2Cl)no1 (configuration not stated)	inconclusive: 3.16 µM [activator, partial curve, poor fit]	
Cc1c(NC(=O)c2cn3ccccc3n2)cccc1-n1cnnn1	inconclusive: 5.01 µM [activator, single point]	
Cc1cc(C(=O)Nc2ccc(Cl)cc2)c(C)n1-c1ccccc1	inactive	
CCCc1nnc(SCC(=O)Nc2ccccc2F)o1	inconclusive: 0.355 µM [activator, full curve, poor fit]	
O=C(COc1ccccc1Br)NCCC1=CCCCC1	inconclusive: 28.2 µM [activator, single point]	
CC1CN(c2ccccc2)CCN1C(=O)c1cc(COc2c(F)cccc2F)on1 (configuration not stated)	inconclusive: 2.82 µM [activator, partial curve, poor fit]	
CC1(c2ccc(OCC(N)=O)cc2)NC(=O)NC1=O (configuration not stated)	inactive	
COc1ccc(N(CC(=O)N2CCN(c3ccccc3)CC2)S(=O)(=O)c2ccc(C)cc2)cc1	inconclusive: 2.24 µM [activator, partial curve, poor fit]	
COc1ccc(O)c(C(=O)c2cnn(S(=O)(=O)c3ccc(C)cc3)c2)c1	inconclusive: 28.2 µM [activator, single point]	
Brc1ccc(C2=Nc3ccccc3C(c3ccncc3)=NN2)cc1	inconclusive: 11.2 µM [activator, single point]	
COc1ccc(C)cc1NC(=O)CCS(=O)(=O)c1ccc2c(c1)oc(=O)n2C	inconclusive: 3.55 µM [activator, partial curve, poor fit]	
COc1cccc(C(=O)COc2ccc(NC(=O)c3ccccc3)cc2)c1	inconclusive: 28.2 µM [activator, single point]	
COc1ccc(Cn2c(N)c(C#N)c3nc4ccccc4nc32)cc1OC	inactive	
O=C(Oc1ccc(C(=S)N2CCOCC2)cc1)c1cccc([N+](=O)[O-])c1	inconclusive: 10 µM [activator, partial curve]	
Cc1ccc(CNC(=O)c2nnc(Cc3ccc(Cl)cc3)o2)cc1	inconclusive: 22.4 µM [activator, single point]	
Cc1cc(C)n(/C(=C/N(C)C)C(=O)c2ccccc2)n1	inconclusive: 5.01 µM [activator, single point]	
OC1(c2cccc(C(F)(F)F)c2)CCN(Cc2nnnn2Cc2ccccc2)CC1	inconclusive: 2 µM [activator, partial curve, poor fit]	

SMILES	Potency	activation
Cn1c(OCc2cccnc2)nc2c1c(=O)n(Cc1ccc(F)cc1)c(=O)n2C	inconclusive: 2.24 µM [activator, partial curve, poor fit]	
O=C1C=C(c2cccc(Cl)c2O)C[C@@H](c2ccc(Cl)cc2)C1	inactive	
Cc1ccccc1C(=O)Nc1cccc(C(=O)Nc2ccccc2C(=O)O)c1	inconclusive: 3.55 µM [activator, single point]	
CC1C(=O)C(C)C(c2ccc3c(c2)OCO3)NC1c1ccc2c(c1)OCO2 (configuration not stated)	inactive	
Cc1cc(S(=O)(=O)N2CCOCC2)ccc1OCC(=O)NCc1ccccn1	inconclusive: 11.2 µM [activator, single point]	
O=C(CSc1nnc(-c2ccc(C(F)(F)F)cn2)o1)Nc1ccccc1Cl	inconclusive: 11.2 µM [activator, single point]	
Cc1cc(=O)oc2cc(NC(=O)COc3cccc(C(F)(F)F)c3)ccc12	inactive	
COCCOC(=O)c1[nH]c2c(c1C)C(=O)CC(c1ccco1)C2 (configuration not stated)	inactive	
COc1ccc(C(=O)NC2CCN(C(=O)Nc3ccccc3Cl)CC2)cc1	inconclusive: 28.2 µM [activator, single point]	
COc1cc(OC)cc(C(=O)N[C@H](C(=O)Nc2ccc(NC(C)=O)cc2)C(C)C)c1	inconclusive: 11.2 µM [activator, single point]	
O=C(Nc1cccc2cccnc12)c1cccc([N+](=O)[O-])c1	inactive	
Cc1ccc(C(=O)Nc2ccc(Br)cc2)cc1S(=O)(=O)Nc1ccccn1	inconclusive: 10 µM [activator, partial curve, poor fit]	
O=C(NCCCN1CCOCC1)c1ccc(Cl)s1	inconclusive: 3.16 µM [activator, partial curve, poor fit]	
CC(=O)Nc1ccc(NC(=O)C(C)Sc2nnc(C3CC3)n2-c2ccccc2)cc1 (configuration not stated)	inconclusive: 11.2 µM [activator, partial curve, poor fit]	
COc1ccc(S(=O)(=O)N2CCC(C(=O)Nc3ccc(F)cc3)CC2)c2cccnc12		inconclusive: 52.4% [activator]
O=c1c2cccc(Cl)c2nc2n1Cc1ccccc1-2	inconclusive: 1.12 µM [activator, partial curve, poor fit]	
CC(C)=CCC1=C(OCC(=O)O)C(=O)c2ccccc2C1=O	inconclusive: 3.55 µM [activator, single point]	
CCOc1ccc(NC(=O)c2sc3nc4n(c(=O)c3c2C)CCC4)cc1	inconclusive: 5.01 µM [activator, single point]	
CC1CCc2nc3ccc(S(=O)(=O)N4CCC(C(=O)N5CCCCCC5)CC4)cc3c(C(=O)O)c2C1 (configuration not stated)	inconclusive: 0.355 µM [activator, partial curve, poor fit]	
COc1ccccc1N1CCN(C(=O)c2n[nH]c3ccccc23)CC1	inconclusive: 3.16 µM [activator, single point]	
Cc1ccccc1COC(=O)c1nn(-c2ccccc2)nc1N	inconclusive: 14.1 µM [activator, single point]	
Cc1ccc(OCc2nnc(SCC(=O)Nc3ccc4c(c3)OCCO4)n2Cc2ccco2)cc1	inactive	
CC(=O)c1c(C)[nH]c(C(=O)/C(C#N)=C/c2cccc(C)c2)c1C	inactive	

Part of the list above, in CSV form:
SMILES,Potency,activation
COc1ccc(C(=O)NC2CCN(C(=O)Nc3ccccc3Cl)CC2)cc1,"inconclusive: 28.2 µM [activator, single point]",
COc1cc(OC)cc(C(=O)N[C@H](C(=O)Nc2ccc(NC(C)=O)cc2)C(C)C)c1,"inconclusive: 11.2 µM [activator, single point]",
O=C(Nc1cccc2cccnc12)c1cccc([N+](=O)[O-])c1,inactive,

(further entries)

SMILES	Potency	activation
Cn1c(=O)cc(OCCCC(=O)NCc2ccc(F)cc2Cl)c2ccccc21	inconclusive: 10 µM [activator, single point]	
Cc1nc2ccccc2c(=O)n1/N=C/c1ccc(O)cc1O	inactive	
CC1CCc2c(c3ccccc3[nH]c2=O)O1 (configuration not stated)	inconclusive: 3.55 µM [activator, single point]	
O=C(O)CN(c1ccccc1)S(=O)(=O)c1cc(C(F)(F)F)cc(C(F)(F)F)c1	inconclusive: 28.2 µM [activator, single point]	
COc1cc2[nH]c3c(=O)n(CCN(C(C)C)C(C)C)cnc3c2cc1OC	inconclusive: 0.891 µM [activator, partial curve, poor fit]	
Cc1ccsc1CCNC(=O)C1CCC(=O)N(CCc2cccc(F)c2)C1 (configuration not stated)	inactive	
COc1ccc(/C=C/C(=O)Nc2cc(=O)n(C)c(=O)n2C)cc1	inconclusive: 3.16 µM [activator, single point]	
c1coc(Cn2c(-c3ccco3)nc3ccccc32)c1	inactive	
CCOC(=O)c1[nH]c(CSc2nnc(-c3ccc(OC)cc3)o2)c(C(=O)OCC)c1C	inconclusive: 22.4 µM [activator, single point]	
COC(=O)c1[nH]c2c(c1C)C(=O)CC(c1cccs1)C2 (configuration not stated)	inconclusive: 11.2 µM [activator, partial curve, poor fit]	
CC(=O)Nc1cccc(C(=O)Nc2cccnc2)c1	inconclusive: 5.01 µM [activator, single point]	
O=C(NCCCn1ccnc1)/C(=C\c1ccccc1Cl)NC(=O)c1ccccc1	inconclusive: 17.8 µM [activator, single point]	
Cc1nn(Cc2ccc(Cl)c(Cl)c2)c(C)c1NC(=O)c1cc(CC(C)C)on1	inactive	
COc1ccc(-c2cc(C(=O)OC3CCOC3=O)c3ccccc3n2)cc1 (configuration not stated)	inactive	
CCOC(=O)COc1nc(C)cc(C(F)(F)F)c1C#N	inconclusive: 14.1 µM [activator, single point]	
O=C(COc1ccc(Br)cc1)Nc1nnc(-c2cccnc2)s1	inconclusive: 17.8 µM [activator, single point]	
Cc1ccc(NS(=O)(=O)c2ccc(-c3coc(C)n3)cc2)c(Cl)c1	inactive	
CC(C)Cc1nnc(NC(=O)C2CCCN(C(=O)c3ccc(Cl)cc3)C2)s1 (configuration not stated)	inactive	
CCc1ccc(/C=C2\Oc3ccc(C(=O)OC)cc3C2=O)cc1	inactive	
CC1(C)CC2(CC(c3ccccc3)Oc3cc(O)ccc32)NC(=S)N1 (configuration not stated)	inconclusive: 7.08 µM [activator, partial curve, poor fit]	
O=S(=O)(NCc1c(Cl)cccc1Oc1ccccc1)c1ccc(F)cc1	inconclusive: 11.2 µM [activator, partial curve, poor fit]	
